Assay results from PubChem BioAssay AID1347076 (National Center for Advancing Translational Sciences (NCATS), 2019).
Screen size: about 400,000 compounds; about 13,000 (3.2%) were called active. The shares of active, inactive and inconclusive entries below differ from those in the screen. Calls come from the whole dose curve; as a rule, active = well fitted cell-killing curve with a large enough effect; inconclusive = small, poorly fitted or top-dose-only effect, or effect the other way; inactive = flat fitted curve, though single readings scatter. Where the call is inconclusive, the potency comes from a doubtful curve fit.
% is set by controls: 0 for no effect and ±100 for the full control effect; potency is the fitted concentration of half-maximal effect.

Assay: qHTS assay for MDR1-selective chemotherapeutics: Primary screen using the drug-selected MDR subline cells KB-V1; note: nearly all actives have a fitted effect of over 60% in size
Conditions: KB-V1 MDR cells viability, CellTiter-Glo, 72 h; activity change, negative = cytotoxicity: at 46.1 µM (top of the series)
Method in brief: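 KB-V1 cells (P-gp-expressing MDR subline of KB-3-1) in phenol-red-free DMEM with 10% FBS were exposed to library compounds over a concentration series for 72 h at 37 degrees C. Viability read by CellTiter-Glo luminescence; concentration-effect curves fitted after normalization.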
With `COc1cc(NC(=O)COC(=O)CO/N=C(\C)c2ccc3c(c2)OCO3)cc(OC)c1` the Potency was inconclusive: 5.8 µM [rising, full curve, poor fit]. In the case of `CC(C)(C)N/N=C/c1cc(Cl)cc([N+](=O)[O-])c1O`, the Potency is reported as inconclusive: 23.1 µM [cytotoxic, single point]. For `Cc1ccc(N2C(=O)NC(C(F)(F)F)(C(F)(F)F)C3=C2CC(C)(C)CC3=O)cc1`, the Potency was inconclusive: 10.3 µM [cytotoxic, partial curve]. For `COCCNC(=O)C1(C)CCCN(C(=O)c2cc(C)oc2C)C1` (centres undefined), the “activity change, negative = cytotoxicity” value was inactive: 2.39%. With `CCOc1ccc(-c2cc(C(=O)N3CCN(C)CC3)c3ccccc3n2)cc1` the “activity change, negative = cytotoxicity” value was inactive: -6.33%. For `O=C1/C(=C\c2ccc(Br)o2)SC(=Nc2ccccc2)N1c1ccccc1`, the Potency was active: 9.2 µM. With `C=C(C)C(=O)Nc1ccc2c(c1)OCCOCCOCCO2` the Potency was inconclusive: 29.1 µM [rising, single point]. For `COCOc1cccc(CN2CCC(C)(Oc3cccc(OC)c3)C2)c1` (centres undefined), the Potency was inconclusive: 10.3 µM [cytotoxic, partial curve, poor fit]. For `COc1cccc(C2C=C(c3ccc(OC)cc3OC)Nc3nnnn32)c1` (centres undefined), the Potency was active: 23.1 µM. With `O=C(CSc1nccc(=O)[nH]1)Nc1ccc(N2CCOCC2)cc1` the “activity change, negative = cytotoxicity” value was inactive: 6.1%. In the case of `COC(=O)c1ccc(CSc2nc3ccccc3c(=O)n2-c2ccccc2)o1`, the Potency is reported as inconclusive: 29.1 µM [cytotoxic, single point]. With `Cc1cc(C)n(C(=O)c2ccc(C)o2)n1` the Potency was inconclusive: 16.4 µM [rising, partial curve, poor fit]. For `O=c1[nH]c2cc3c(cc2cc1C(c1nnnn1CC1CCCO1)N1CCCCCC1)OCCO3` (centres undefined), the “activity change, negative = cytotoxicity” value was inactive: -2.41%. For `C=CCNC(=S)NNC(=O)c1ccccc1`, the “activity change, negative = cytotoxicity” value was inactive: 18.6%. In the case of `C=C(C)CCC(C)N1CCC(n2nccc2NC(=O)CCOc2ccccc2)CC1` (centres undefined), the Potency is reported as inconclusive: 32.6 µM [cytotoxic, single point]. For `CCn1cc(C2=NC(CCSC)CO2)c2ccccc21` (centres undefined), the “activity change, negative = cytotoxicity” value was inactive: -4.13%. With `COc1ccc(CNC(=S)Nc2cccc(F)c2)cc1` the Potency was inconclusive: 29.1 µM [cytotoxic, single point]. With `O=C1CC(N2CCN(c3cccc(C(F)(F)F)c3)CC2)C(=O)N1c1ccccc1` (centres undefined) the “activity change, negative = cytotoxicity” value was inactive: 0.484%. With `O=C/C(=C\Nc1ccccn1)c1nc2ccccc2o1` the “activity change, negative = cytotoxicity” value was inactive: 10.7%. In the case of `COc1cc(CN(C(=O)c2cccc(Cl)c2)c2ccccn2)cc(OC)c1OC`, the Potency is reported as inconclusive: 0.411 µM [cytotoxic, partial curve, poor fit]. With `CC(C)(C)OC(=O)NCCCCCc1nnc(SCc2ccccc2)o1` the Potency was inconclusive: 23.1 µM [cytotoxic, partial curve, poor fit]. With `COc1ccc(S(=O)(=O)c2c(O)c3ccc(C(=O)Nc4ccccc4F)cc3[nH]c2=O)cc1` the “activity change, negative = cytotoxicity” value was inactive: -24.8%. For `CCCCn1nnnc1C(c1cc2ccccc2o1)N1CCN(c2ccccc2F)CC1` (centres undefined), the Potency was inconclusive: 18.4 µM [cytotoxic, partial curve]. For `Cc1ccc(-n2nc(C(=O)Nc3ccc(Cl)cn3)c3c4ccccc4n(C)c3c2=O)cc1`, the Potency was inconclusive: 29.1 µM [rising, single point]. For `CCOC(=O)c1c(C)n(S(=O)(=O)c2ccc(C)cc2)c2ccc(O)c(C(=O)O)c12`, the Potency was inconclusive: 29.1 µM [rising, single point]. With `Cn1c(C=O)c(-c2ccc3cc[nH]c3c2)c2ccccc21` the Potency was inconclusive: 20.6 µM [rising, single point]. With `CCOC(=O)N1CCC(NC(=O)CCc2c(C)nc3c(c(C)nn3C(C)(C)C)c2C)CC1` the Potency was active: 3.66 µM. For `Cc1ccc([N+](=O)[O-])cc1S(=O)(=O)NCCc1cn2ccccc2n1`, the Potency was inconclusive: 3.26 µM [cytotoxic, full curve, poor fit]. In the case of `O=C1/C(=C/c2cccnc2)SC(=S)N1c1ccccc1`, the “activity change, negative = cytotoxicity” value is reported as inactive: 4.71%. With `COc1ccc(/C=N/NC(=O)c2ccccc2[N+](=O)[O-])cc1CN1CCc2cc(OC)c(OC)cc2C1C` (centres undefined) the “activity change, negative = cytotoxicity” value was inactive: -19.5%. In the case of `COc1ccc(OC)c(N(CC(=O)NC2CC2)S(=O)(=O)c2ccc(C)cc2)c1`, the Potency is reported as inconclusive: 23.1 µM [cytotoxic, partial curve, poor fit]. With `CCc1ccc(NC(=O)CSc2nccn2-c2cccc(C)c2C)cc1` the Potency was inconclusive: 29.1 µM [cytotoxic, single point]. With `CSCCC(NS(=O)(=O)c1ccc(C)cc1)C(=O)N1CCN(C(c2ccccc2)c2ccccc2)CC1` (centres undefined) the Potency was inconclusive: 7.31 µM [cytotoxic, partial curve]. In the case of `O=c1cc(-c2ccc(F)cc2)nc(SCc2nc(-c3cccc(Cl)c3)no2)[nH]1`, the “activity change, negative = cytotoxicity” value is reported as inactive: 7.82%. For `O=C(C1CCCN(S(=O)(=O)c2ccc(Br)s2)C1)N1CCN(c2ccc(F)cc2)CC1` (centres undefined), the Potency was inconclusive: 20.6 µM [cytotoxic, single point]. For `Cc1ccccc1N1C(=O)[C@@H]2Cc3ccccc3CN2C1=O`, the Potency was active: 16.4 µM. For `CC(C)C[C@H](N)c1cn([C@@H](CCCCN)C(=O)N2CCNCC2)nn1`, the Potency was inconclusive: 0.92 µM [cytotoxic, full curve, poor fit]. For `COC(=O)c1c(C)[nH]c(C(=O)COC(=O)Cc2ccc3c(c2)OCCO3)c1C`, the Potency was inconclusive: 5.8 µM [cytotoxic, full curve]. With `CC(C(=O)Nc1ccc(C(=O)O)cc1)N1C(=O)c2ccccc2C1=O` (centres undefined) the Potency was inconclusive: 5.17 µM [rising, partial curve, poor fit]. In the case of `O=C(N1CCC(n2nc(-c3ccccc3)oc2=O)CC1)C1(c2ccccc2)CC1`, the Potency is reported as inconclusive: 0.0092 µM [cytotoxic, full curve]. With `CC1CN(C(=O)N2CCC(C(=O)NCCC3=CCCCC3)CC2)c2cc(Cl)ccc2O1` (centres undefined) the activity change, negative = cytotoxicity was inconclusive: -5.4%. With `Cc1ccc(C2CC(=O)N(Cc3ccccc3)c3c2c(C)nn3-c2nc(C)cc(C)n2)cc1` (centres undefined) the “activity change, negative = cytotoxicity” value was inactive: -6.19%. In the case of `O=C(Nc1ccc2ccccc2c1)c1ccc(NS(=O)(=O)c2ccc(Br)s2)cc1`, the Potency is reported as inconclusive: 23.1 µM [cytotoxic, single point]. For `O=C(NCC(c1ccco1)N1CCc2ccccc2C1)c1ccc([N+](=O)[O-])cc1` (centres undefined), the Potency was inconclusive: 7.31 µM [cytotoxic, partial curve]. With `CC(=O)N1CCN(C(=O)c2cc(-c3ccc(C)o3)nc3ccccc23)CC1` the Potency was inconclusive: 23.1 µM [cytotoxic, single point]. In the case of `Cn1c(N)c(C(=O)CSc2nn(-c3ccc(F)cc3)c(=S)s2)c(=O)n(C)c1=O`, the “activity change, negative = cytotoxicity” value is reported as inactive: -10.3%. For `O=C(c1c(F)c(F)c(F)c(F)c1F)N1CCN(c2cccc(C(F)(F)F)c2)CC1`, the Potency was inconclusive: 23.1 µM [cytotoxic, single point]. With `COc1cc(/C=N\n2nnnc2N)ccc1OCc1ccc(F)cc1` the Potency was inconclusive: 13 µM [cytotoxic, partial curve]. In the case of `CCN(C(=O)COC(=O)/C=C/c1cnc2ccccc2n1)c1ccccc1`, the “activity change, negative = cytotoxicity” value is reported as inactive: 9.25%. With `O=C(NCCc1ccc(Cl)cc1)C1CCN(S(=O)(=O)c2cccs2)CC1` the Potency was inconclusive: 29.1 µM [cytotoxic, single point]. With `CCCCN(Cc1ccco1)S(=O)(=O)c1csc(C(N)=O)c1` the “activity change, negative = cytotoxicity” value was inactive: -33.6%. With `N=c1c(C(=O)NCc2ccco2)cc2c(=O)n3ccccc3nc2n1CCc1ccccc1` the Potency was active: 20.6 µM. In the case of `COCCNS(=O)(=O)c1ccc(OCC(=O)N2CCc3ccccc3C2)c(Cl)c1`, the Potency is reported as inconclusive: 5.17 µM [cytotoxic, full curve, poor fit]. For `O=C(CN1CCN(S(=O)(=O)c2ccccc2)CC1)NCc1ccccc1`, the “activity change, negative = cytotoxicity” value was inactive: 10%. With `CN(C(=O)COc1ccccc1)c1nc(-c2ccc(F)cc2)cs1` the Potency was inconclusive: 16.4 µM [rising, single point]. In the case of `CCc1nn(C(C)C(=O)N2CCN(Cc3ccccc3)CC2)c(=O)c2cc3occc3n12` (centres undefined), the “activity change, negative = cytotoxicity” value is reported as inactive: -14.3%. In the case of `O=c1c2ccccc2nc(/C=C/c2ccc(Cl)cc2)n1CCO`, the Potency is reported as inconclusive: 23.1 µM [cytotoxic, partial curve, poor fit]. In the case of `COC(=O)c1sccc1NC(=O)CN(C)NS(=O)(=O)c1ccc(F)cc1`, the Potency is reported as inconclusive: 20.6 µM [cytotoxic, single point]. With `CCOC(=O)c1sc(Nc2ccccc2)nc1C` the “activity change, negative = cytotoxicity” value was inactive: -2.07%. With `Nc1ccc(-c2nnc(-c3ccc(N)cc3)o2)cc1` the Potency was inconclusive: 25.9 µM [rising, partial curve]. For `COc1ccccc1N1CCN(C(=O)Cc2ccc(Cl)cc2)CC1`, the Potency was inconclusive: 23.1 µM [cytotoxic, single point]. With `CCOC(=O)C1(C)CCN1C(=O)c1ccccc1C` (centres undefined) the “activity change, negative = cytotoxicity” value was inactive: -1.05%. With `CN(C)CCCN1c2ccc(O)cc2Sc2ccc(Cl)cc21` the Potency was inconclusive: 18.4 µM [cytotoxic, single point]. With `Cc1nc2sc(C(=O)Nc3ccc(F)cc3)c(N)c2c(-c2ccc(Br)cc2)c1C(=O)Nc1ccc(Cl)cc1` the Potency was inconclusive: 29.1 µM [rising, single point]. With `CCc1cccc(NC(=O)c2cnc(SC)nc2-c2ccccc2)c1` the “activity change, negative = cytotoxicity” value was inactive: 0%. With `CC(C)(C)C1CCc2c(sc(NC(=O)C3CC=CCC3C(=O)O)c2C#N)C1` (centres undefined) the Potency was inconclusive: 2.31 µM [rising, partial curve, poor fit]. In the case of `CCCN1C(=O)c2ccccc2NC1c1ccc(OC)cc1OC` (centres undefined), the Potency is reported as inconclusive: 9.2 µM [cytotoxic, partial curve]. For `CCN1CCN(c2c(Cl)cccc2NC(=O)c2ccc3c(c2)OCCO3)CC1`, the Potency was inconclusive: 23.1 µM [cytotoxic, single point]. For `CCCCOc1ccc(C(=O)NCCc2sc(-c3cccc(F)c3)nc2C)cc1`, the Potency was inconclusive: 16.4 µM [cytotoxic, partial curve].
